Where a name gives a salt, the structure may show the parent alone. Some of the results follow. This data set is noisy: repeats of one test often differ as much as different tests do.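 A first-round screen of about ten thousand compounds sought those raising reporter output, using human embryonic kidney cells briefly transfected with a plasmid carrying a Renilla luciferase gene driven by the HSV-TK promoter.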

For the experiment, the system named is HEK 293FT. Put plainly: log relative Renilla luciferase luminescence (reporter expression vs reference, reference not stated) (log (base not stated)); higher = higher recombinant reporter expression. Conditions: 10 µM; time after transfection 48 h.
`CCN1CCCC1CNC(=O)c1cc(S(=O)(=O)CC)c(N)cc1OC` (configuration not stated) [amisulpride]: the log came out at 0.00103. The figure for `Cc1cc(O)cc(=O)o1` [4-hydroxy-6-methylpyran-2-one] is 0.209. The value for `CC(C)[C@H]1CC[C@H](C(=O)N[C@H](Cc2ccccc2)C(=O)O)CC1` [nateglinide] was -0.0474; that for `COC(=O)/C(=C1/OC(=O)C(c2ccccc2)=C1O)c1ccccc1` [vulpinic acid] was -0.623. The figure for `CC(=O)Oc1cccc(C(=O)O)c1OC(C)=O` [dipyrocetyl] is 0.071; for `COC(=O)[C@@H]1OC(=O)C2OC23[C@@]1(C)CCC1[C@]2(C)C(C[C@@H](O)[C@]13C)C(C)(C)[C@H](OC(C)=O)C[C@@H]2OC(C)=O` (some centres not stated) [desacetyl (7)khivorinic acid, methyl ester] it is 0.00612.

Regarding `COc1ccc(C(C)=O)c(O)c1` [paeonol], the log amounted to 0.0642. The value for `CC(C)c1nc(CN(C)C(=O)N[C@H](C(=O)N[C@@H](Cc2ccccc2)C[C@H](O)[C@H](Cc2ccccc2)NC(=O)OCc2cncs2)C(C)C)cs1` [ritonavir] was -0.114; that for `COc1ccccc1OCCNCC(O)COc1cccc2[nH]c3ccccc3c12` (configuration not stated) [carvedilol phosphate] was 0.133; that for `COc1ccccc1OCCNCC(O)COc1cccc2[nH]c3ccccc3c12` (configuration not stated) [carvedilol] was 0.0664.

Take `CC1CCc2cc(F)cc3c(=O)c(C(=O)O)cn1c23` (configuration not stated) [flumequine]: the log came out at 0.0299. The figure for `COc1cc2c(cc1OC)-c1c(oc3cc(O)cc(O)c3c1=O)CO2` [apotoxicarol] is -0.0745; for `CCCCOc1ccc(OCCCN2CCOCC2)cc1` [pramoxine hydrochloride] it is 0.105; for `CC(CCc1ccc(O)cc1)NCCc1ccc(O)c(O)c1` (configuration not stated) [dobutamine hydrochloride] it is 0.114.

As for `O=c1cc(-c2ccccc2)oc2ccc(O)cc12` [6-hydroxyflavone], the log was found to be 0.262. The value for `CCOc1nc2cccc(C(=O)OC(C)OC(=O)OC3CCCCC3)c2n1Cc1ccc(-c2ccccc2-c2nn[nH]n2)cc1` (configuration not stated) [candesartan cilextil] was 0.275; that for `Nc1ccc(S(N)(=O)=O)cc1` [sulfanilamide] was 0.0919; that for `CC1CCN(CCCC(=O)c2ccc(F)cc2)CC1` [melperone hydrochloride] was -0.164. The figure for `Nc1ncnc2c1ncn2[C@H]1C[C@H](O)[C@@H](CO)O1` [deoxyadenosine] is 0.0621. The value for `COc1ccc2c(c1)OCC(Cc1ccc(OC)c(OC)c1)C2=O` (configuration not stated) [deoxysappanone b trimethyl ether] was -0.00397; that for `COc1ccc([C@H]2Oc3cc(OC)cc(OC)c3C[C@H]2O)cc1` [epiafzelechin trimethyl ether] was -0.0105; that for `CCC(C)(C)c1ccc(CC(C)CN2C[C@@H](C)O[C@@H](C)C2)cc1` (some centres not stated) [amorolfine hydrochloride] was 0.0663. As for `CC[C@]12CCCN3CCc4c(n(c5ccccc45)[C@@](O)(C(=O)OC)C1)[C@@H]32` [vincamine], the log turned out to be 0.117. Regarding `NC(=O)C1(N2CCCCC2)CCN(CCCC(=O)c2ccc(F)cc2)CC1` [pipamperone], the log was -0.0546. Turning to `CCCCCCCCCCCCCCCC[N+](C)(C)C` [cetrimonium bromide], the log is -1.75. The figure for `O=C(O)CCc1nc2ccccc2[nH]1` [procodazole] is 0.125; for `C[C@@H]1CC2C3C[C@H](F)C4=CC(=O)C=C[C@]4(C)[C@@]3(F)[C@@H](O)C[C@]2(C)[C@@]1(O)C(=O)COC(=O)C(C)(C)C` (some centres not stated) [flumethazone pivalate] it is 0.0583; for `C=C(NC(=O)C(=C)NC(=O)c1csc(C2=N[C@@H]3c4csc(n4)[C@H]4NC(=O)c5csc(n5)[C@H]([C@](C)(O)[C@@H](C)O)NC(=O)[C@H]5CSC(=N5)/C(=C/C)NC(=O)[C@H]([C@@H](C)O)NC(=O)c5csc(n5)[C@]3(CC2)NC(=O)[C@H](C)NC(=O)C(=C)NC(=O)[C@H](C)NC(=O)[C@H]([C@@H](C)CC)N[C@@H]2C=Cc3c([C@H](C)O)cc(nc3[C@H]2O)C(=O)O[C@@H]4C)n1)C(N)=O` [thiostrepton] it is -0.563. The figure for `Cn1c(=O)c2c(ncn2CC(O)CO)n(C)c1=O` (configuration not stated) [dyphylline] is -0.243; for `CCCc1nc(C(C)(C)O)c(C(=O)OCc2oc(=O)oc2C)n1Cc1ccc(-c2ccccc2-c2nnn[nH]2)cc1` [olmesartan medoxomil] it is -0.054. The value for `NC(=O)c1cccnc1` [niacinamide] was 0.00906; that for `Nc1nccs1` [aminothiazole] was -0.109; that for `COc1cc(C)c2c(=O)cc(-c3ccccc3)oc2c1` [methoxyvone] was -0.152. On to `CC(C)(Oc1ccc(C2CC2(Cl)Cl)cc1)C(=O)O` (configuration not stated) [ciprofibrate], for which the log is 0.044. The value for `CC1=C(C(=O)O)N2C(=O)[C@@H](NC(=O)[C@H](N)c3ccc(O)cc3)[C@H]2SC1` [cefadroxil] was -0.116; that for `OC[C@H]1O[C@@H](O[C@H]2[C@H](O)[C@@H](O)[C@@H](O)O[C@@H]2CO)[C@H](O)[C@@H](O)[C@@H]1O` [cellobiose (d[+])] was 0.145; that for `CC[C@]1(O)C[C@@H]2CN(CCc3c([nH]c4ccccc34)[C@@](C(=O)OC)(c3cc4c(cc3OC)N(C)[C@H]3[C@@](O)(C(=O)OC)[C@H](OC(C)=O)[C@]5(CC)C=CCN6CC[C@]43[C@@H]65)C2)C1` [vinblastine sulfate] was -0.172.

For the compound `C=C1CC=C(C)CC[C@@H]2[C@@H]1CC2(C)C` [caryophyllene [t(-)]], the log worked out at 0.105. Consider `CCN(CCCc1ccccc1)CCCc1ccccc1` [alverine citrate], for which the log was -0.0348. The figure for `CCCCC(CC)COC(=O)c1ccccc1O` (configuration not stated) [octisalate] is 0.0328. The figure for `CC(=O)[C@H]1CC[C@H]2[C@@H]3CC=C4C[C@@H](OC(=O)CCC(=O)O)CC[C@]4(C)[C@H]3CC[C@]12C` [pregnenolone succinate] is -0.068. The value for `CC(CCc1ccc(O)cc1)NCC(O)c1ccc(O)cc1` (configuration not stated) [ractopamine hydrochloride] was -0.0892; that for `O=P(O)(O)C(O)(Cc1cccnc1)P(=O)(O)O` [risedronate sodium] was -0.0406; that for `COc1ccc(-n2nc(CCC(=O)N(C)O)cc2-c2ccc(Cl)cc2)cc1` [tepoxalin] was -0.682. Turning to `O=C(O)c1cc(O)c(O)c(O)c1` [gallic acid], the log was -1.36. The value for `CCN(CC)C(=O)N1CCN(C)CC1` [diethylcarbamazine citrate] was -0.00986; that for `CC(C)=CCC/C(C)=C/COc1ccc2ccc(=O)oc2c1` [auraptene] was -0.157; that for `Cc1cc(CC(C)CC(C)(C)C)n(O)c(=O)c1` (configuration not stated) [piroctone olamine] was -0.99. The value for `COc1c(OC)c2occc2c2oc(=O)ccc12` [pimpinellin] was 0.00912; that for `CN1CCC[C@H]1c1cccnc1` [nicotine bitartrate] was 0.19; that for `CCCC(C(=O)OCCN(CC)CC)(c1ccccc1)c1ccccc1` [proadifen hydrochloride] was -0.0202.

In the case of `C[C@H](CCC(=O)NCC(=O)O)[C@H]1CC[C@H]2[C@@H]3[C@H](O)C[C@@H]4C[C@H](O)CC[C@]4(C)[C@H]3C[C@H](O)[C@]12C` [glycocholic acid], the log is -0.0811. The value for `Clc1ccc(COC(Cn2ccnc2)c2ccc(Cl)cc2Cl)cc1` (configuration not stated) [econazole nitrate] was -0.0526.

Take `Clc1ccccc1C(c1ccccc1)(c1ccccc1)n1ccnc1` [clotrimazole]: the log was -0.134.

`NC(=O)NO` [hydroxyurea]: the log is -0.0417. As for `CO/N=C1\CN(c2nc3c(cc2F)c(=O)c(C(=O)O)cn3C2CC2)CC1CN` (configuration not stated) [gemifloxacin mesylate], the log turned out to be 0.0999. Regarding `CC(=O)c1ccc2c(c1)N(CCCN1CCN(CCO)CC1)c1ccccc1S2` [acetophenazine maleate], the log was -0.0934. As to `O=C(O)c1cc(=O)c2c(OCC(O)COc3cccc4oc(C(=O)O)cc(=O)c34)cccc2o1` [cromolyn sodium], the log is -0.103.

Consider `O=c1c(O)c(-c2ccccc2)oc2cc(O)cc(O)c12` [galangin], for which the log is -0.148. The value for `C=CCc1ccccc1OCC(O)CNC(C)C` (configuration not stated) [alprenolol] was -0.0325; that for `NC[C@H]1CC[C@H](C(=O)O)CC1` [tranexamic acid] was -0.0724; that for `Oc1c(Cl)cc(Cl)cc1Sc1cc(Cl)cc(Cl)c1O` [bithionate sodium] was -1.25. The value for `CC(=O)OC(C)C[N+](C)(C)C` (configuration not stated) [methacholine chloride] was 0.109.

As for `CCCCOc1ccc(CC(=O)NO)cc1` [bufexamac], the log is 0.0865. Take `CCCCC[C@H](CC(=O)NO)C(=O)N[C@H](C(=O)N1CCC[C@H]1CO)C(C)C` [actinonin]: the log was -0.412. The figure for `Nc1nc(=O)c2c([nH]1)NCC(CNc1ccc(C(=O)N[C@@H](CCC(=O)O)C(=O)O)cc1)N2C=O` (some centres not stated) [leucovorin calcium] is 0.0943.

For `COc1ccc2nc3cc(Cl)ccc3c(Nc3cc(CN4CCCC4)c(O)c(CN4CCCC4)c3)c2n1` [pyronaridine tetraphosphate], the log was determined as 0.0261.

Consider `O=C(O)/C=C/C=C/c1ccc2c(c1)OCO2` [piperic acid], for which the log worked out at 0.0859. The figure for `CC(C)CCC[C@@H](C)[C@H]1CC[C@H]2[C@@H]3CC=C4C[C@@H](O)CC[C@]4(C)[C@H]3CC[C@]12C` [cholesterol] is 0.118; for `Nc1ccn([C@@H]2O[C@H](CO)[C@@H](O)[C@H]2O)c(=O)n1` [cytidine] it is 0.0518; for `CN(C)CCC(c1ccccc1)c1ccccn1` (configuration not stated) [pheniramine maleate] it is 0.0599. The figure for `C=CC(C1=CC(=O)C(OC)=CC1=O)c1ccc(O)cc1` (configuration not stated) [dalbergione, 4-methoxy-4'-hydroxy-] is -1.69.

The values are drawn from the supplement of paper PMC7024190.
